Reference: PMC4118601
These are yes or no findings as the source states them, for the method shown. In cells and extracts the contact can be indirect. Some entries that bind do so weakly or less than the wild type. Where a sequence is shown, tags or fusion partners need not be part of it.

Sequences of proteins named here, by UniProt entry; tags and fusion partners are left off. A change or cut given only in a name is not applied to a line headed by its entry.
UniProt P04551: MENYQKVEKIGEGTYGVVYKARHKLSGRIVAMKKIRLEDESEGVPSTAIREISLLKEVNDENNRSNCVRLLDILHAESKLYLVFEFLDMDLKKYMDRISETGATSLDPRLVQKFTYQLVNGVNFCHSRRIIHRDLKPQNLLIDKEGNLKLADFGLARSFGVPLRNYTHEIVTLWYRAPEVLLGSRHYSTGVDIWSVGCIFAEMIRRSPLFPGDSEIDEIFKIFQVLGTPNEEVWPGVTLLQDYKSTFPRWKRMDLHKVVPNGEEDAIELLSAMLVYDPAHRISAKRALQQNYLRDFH

Target: T1, GST-tagged p13Suc1 (Suc1-beads) (UniProt P08463)
T1 sequence: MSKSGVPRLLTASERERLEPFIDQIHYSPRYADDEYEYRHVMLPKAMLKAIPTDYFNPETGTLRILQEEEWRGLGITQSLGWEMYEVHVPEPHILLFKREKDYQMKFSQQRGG
Test: pull-down; Suc1-beads (Millipore) incubated with S. pombe protein extracts; pulldowns analysed by SDS-PAGE and Western blot with anti-Cdc2 monoclonal; in the absence of ATP-analogues; only the target purified

| binding | Substance |
| --- | --- |
| binds | Cdc2 wild type (Cdk1 of fission yeast) (from UniProt P04551 1-297) (enzyme) |
| binds | Cdc2-asM17 (Cdc2 K79E F84G) (from UniProt P04551 1-297) (enzyme) |
